Source: doi:10.1101/681833
Results are given in words; binding and its absence hold for the method and conditions named. Binding seen in cells or lysates may run through a third protein. Some results given as binding are weak or reduced against the parent protein; the word gives no strength.

Target: T1, malin (co-expressed in cells) (UniProt Q6VVB1)
T1 sequence: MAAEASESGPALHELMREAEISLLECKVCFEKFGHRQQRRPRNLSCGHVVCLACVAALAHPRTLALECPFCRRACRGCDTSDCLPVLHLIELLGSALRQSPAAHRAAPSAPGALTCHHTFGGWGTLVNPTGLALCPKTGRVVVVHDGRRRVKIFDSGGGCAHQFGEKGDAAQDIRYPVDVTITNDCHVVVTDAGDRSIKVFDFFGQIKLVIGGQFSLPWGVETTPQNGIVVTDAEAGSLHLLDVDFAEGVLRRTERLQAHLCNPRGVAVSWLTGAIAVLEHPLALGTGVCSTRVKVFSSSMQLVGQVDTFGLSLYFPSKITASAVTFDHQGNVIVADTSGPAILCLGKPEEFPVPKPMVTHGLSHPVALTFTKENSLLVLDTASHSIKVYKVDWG
Test: co-IP

binding: binds
B1: glycogen phosphorylase brain isoform (co-expressed in cells) (enzyme, UniProt P11216 1-843)
chain: MAKPLTDSEKRKQISVRGLAGLGDVAEVRKSFNRHLHFTLVKDRNVATPRDYFFALAHTVRDHLVGRWIRTQQHYYERDPKRIYYLSLEFYMGRTLQNTMVNLGLQNACDEAIYQLGLDLEELEEIEEDAGLGNGGLGRLAACFLDSMATLGLAAYGYGIRYEFGIFNQKIVNGWQVEEADDWLRYGNPWEKARPEYMLPVHFYGRVEHTPDGVKWLDTQVVLAMPYDTPVPGYKNNTVNTMRLWSAKAPNDFKLQDFNVGDYIEAVLDRNLAENISRVLYPNDNFFEGKELRLKQEYFVVAATLQDIIRRFKSSKFGCRDPVRTCFETFPDKVAIQLNDTHPALSIPELMRILVDVEKVDWDKAWEITKKTCAYTNHTVLPEALERWPVSMFEKLLPRHLEIIYAINQRHLDHVAALFPGDVDRLRRMSVIEEGDCKRINMAHLCVIGSHAVNGVARIHSEIVKQSVFKDFYELEPEKFQNKTNGITPRRWLLLCNPGLADTIVEKIGEEFLTDLSQLKKLLPLVSDEVFIRDVAKVKQENKLKFSAFLEKEYKVKINPSSMFDVHVKRIHEYKRQLLNCLHVVTLYNRIKRDPAKAFVPRTVMIGGKAAPGYHMAKLIIKLVTSIGDVVNHDPVVGDRLKVIFLENYRVSLAEKVIPAADLSQQISTAGTEASGTGNMKFMLNGALTIGTMDGANVEMAEEAGAENLFIFGLRVEDVEALDRKGYNAREYYDHLPELKQAVDQISSGFFSPKEPDCFKDIVNMLMHHDRFKVFADYEAYMQCQAQVDQLYRNPKEWTKKVIRNIACSGKFSSDRTITEYAREIWGVEPSDLQIPPPNIPRD
